Results taken from publication PMC4792416.
Where two headings read alike, the source gives them in different places. Results are given in words; binding and its absence hold for the method and conditions named. For part of these data: Binding can be weak; no strength is given. For part of these data: Sequences can lack the tags named with a protein. For part of these data: In cells and extracts the contact can be indirect. One block for each molecule: values may come before it.

Protein sequences, listed by entry. Tags and fused reporters are not part of them. Lines headed by an entry give the natural chain unless they say otherwise; changes in a name come on top.
UniProt O82307: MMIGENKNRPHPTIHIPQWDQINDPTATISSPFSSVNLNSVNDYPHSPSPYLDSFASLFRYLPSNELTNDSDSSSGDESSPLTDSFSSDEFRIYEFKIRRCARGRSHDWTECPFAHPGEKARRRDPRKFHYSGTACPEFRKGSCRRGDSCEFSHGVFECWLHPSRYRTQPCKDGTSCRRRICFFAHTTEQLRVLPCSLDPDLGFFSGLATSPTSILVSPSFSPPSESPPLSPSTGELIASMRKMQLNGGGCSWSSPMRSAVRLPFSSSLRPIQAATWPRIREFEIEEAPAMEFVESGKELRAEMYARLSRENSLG
UniProt P43297: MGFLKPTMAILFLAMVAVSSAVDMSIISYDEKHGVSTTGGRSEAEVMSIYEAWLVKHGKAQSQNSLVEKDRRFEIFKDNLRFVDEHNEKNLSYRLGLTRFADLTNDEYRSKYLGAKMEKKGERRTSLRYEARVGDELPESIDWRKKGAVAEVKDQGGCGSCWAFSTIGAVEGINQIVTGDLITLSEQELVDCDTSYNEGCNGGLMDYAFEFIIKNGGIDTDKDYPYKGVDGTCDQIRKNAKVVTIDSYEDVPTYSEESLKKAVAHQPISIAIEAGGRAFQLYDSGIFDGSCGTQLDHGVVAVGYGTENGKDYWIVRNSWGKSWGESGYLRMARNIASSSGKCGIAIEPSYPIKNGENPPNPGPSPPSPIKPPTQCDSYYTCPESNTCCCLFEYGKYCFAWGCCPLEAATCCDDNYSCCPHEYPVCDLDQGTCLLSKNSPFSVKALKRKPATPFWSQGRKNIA

Columns and labels:
[1] = biological target: AtTZF1 full length, GAL4 DNA binding domain fusion (pAS1 bait) (Arabidopsis thaliana) (UniProt O82307); assay: two-hybrid; directed test in yeast PJ69-4A by co-expression of bait (GAL4 BD, pAS1) and prey (GAL4 AD); growth assay
[2] = biological target: T1, AtTZF6 full length, GAL4 DNA binding domain fusion (pAS1 bait) (Arabidopsis thaliana) (UniProt O65036); assay: as above
T1 sequence: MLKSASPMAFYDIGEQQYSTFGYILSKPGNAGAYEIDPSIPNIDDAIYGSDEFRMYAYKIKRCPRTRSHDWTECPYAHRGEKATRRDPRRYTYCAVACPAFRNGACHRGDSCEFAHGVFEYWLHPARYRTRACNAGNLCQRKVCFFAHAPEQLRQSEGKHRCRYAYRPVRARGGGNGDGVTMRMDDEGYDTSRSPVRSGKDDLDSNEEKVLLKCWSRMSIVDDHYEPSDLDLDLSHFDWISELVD

[3] = biological target: AtTZF5 full length, GAL4 DNA binding domain fusion (pAS1 bait) (Arabidopsis thaliana); assay: as above
[4] = biological target: AtTZF1 full length, GAL4 DNA binding domain fusion (pAS1 bait) (Arabidopsis thaliana) (UniProt O82307); assay: as above; remark: listed apart in the source
[5] = biological target: AtTZF5 RR-TZF motif, GAL4 DNA binding domain fusion (pAS1 bait) (Arabidopsis thaliana); assay: as above
[6] = biological target: AtTZF5 TZF motif, GAL4 DNA binding domain fusion (pAS1 bait) (Arabidopsis thaliana); assay: as above
[7] = biological target: AtTZF5 full length, GFP-tagged (pK7FWG2) (Arabidopsis thaliana); assay: co-IP; GFP-tagged and HA-tagged proteins co-expressed with p19 in N. benthamiana leaves by agroinfiltration; anti-GFP antibody on protein A Sepharose, 2 h at 4°C; co-IP products detected with anti-HA antibody
[8] = biological target: AtTZF1-CYFP (Arabidopsis thaliana) (UniProt O82307); assay: split reporter; BiFC with CYFP and NYFP fusions, paired constructs co-transformed into Arabidopsis protoplasts; YFP fluorescence by microscopy
[9] = biological target: AtTZF5 RR-TZF motif, BiFC fusion (Arabidopsis thaliana); assay: as above
[10] = biological target: AtTZF5 TZF motif, BiFC fusion (Arabidopsis thaliana); assay: as above

binding [1]: no binding
Molecule: Responsive to Dehydration 21A (RD21A) full length, GAL4 activation domain fusion (pAD-GAL4-2.1 prey) (from UniProt P43297 1-462)

binding [3]: no binding
B1: DCP5, GAL4 activation domain fusion (protein, UniProt Q9C658 1-611)
chain: MAADNTGSKSSSAADSYVGSLISLTSKSEIRYEGILYNINTDESSIGLQNVRSFGTEGRKKDGPQVPPSDKVYEYILFRGTDIKDLQVKASPPVQPPASTINNDPAIIQSHYPSPMPTSGSLPSTASGSLPDISSHNGQPGQHGMGFQNAMPLYQPGGNLGSWGASPQPPMYWQGFYTPPPNGLPQLHQQSLIRPPHGLPMPNSLQQPLQYPNFNTPPPPTGSSSLQGSSLPEAPSSLFPFSTSSQMLAPSSLPFPGLPPVTLSSSLQSTLQSAPSPSLASEMAPPLLSNKAPITAPPTLPQDTNLLSFSLSTTRATEASTGLPLSNKPSVVTGPISPPQTTPLTSAPVAGVSSSISQDKPKPLLVTPGQLLQSGSSAVSLSPPSTNADKDVEVVQVSSSAGLEQSVPVTSEAQPPILPLPSSARPTQKPNGHSFPNHNGYRGRGRGRGRGAGRSHQVMKFTEDFDFTAMNEKFNKDEVWGHLGKSTTLDGDEDDDSPTVDEAELPKIEAKPVYNKDDFFDSLSSNTIDRESQNSRPRFSEQRKLDTETFGEFSRFRGGRGGRGGYGRNNGYSRGGYGGRGYGGYGGRGGGGGGYGYGGRGQGRGVSNRTT

binding [3]: no binding
B2: polyA-binding protein PABP8, GAL4 activation domain fusion (protein, UniProt Q9FXA2 1-671)
chain: MAQIQHQGQNANGGVAVPGAAAAEAAAAAAGAAAAAAGAAQQGTTSLYVGDLDATVTDSQLFEAFTQAGQVVSVRVCRDMTTRRSLGYGYVNYATPQDASRALNELNFMALNGRAIRVMYSVRDPSLRKSGVGNIFIKNLDKSIDHKALHETFSAFGPILSCKVAVDPSGQSKGYGFVQYDTDEAAQGAIDKLNGMLLNDKQVYVGPFVHKLQRDPSGEKVKFTNVYVKNLSESLSDEELNKVFGEFGVTTSCVIMRDGEGKSKGFGFVNFENSDDAARAVDALNGKTFDDKEWFVGKAQKKSERETELKQKFEQSLKEAADKSQGSNLYVKNLDESVTDDKLREHFAPFGTITSCKVMRDPSGVSRGSGFVAFSTPEEATRAITEMNGKMIVTKPLYVALAQRKEDRKARLQAQFSQMRPVNMPPAVGPRMQMYPPGGPPMGQQLFYGQGPPAMIPQPGFGYQQQLVPGMRPGGSPMPNFFMPMMQQGQQQQQQQQQQQRPGGGRRGALPQPQQPSPMMQQQMHPRGRMYRYPQRDVNTMPGPTQNMLSVPYDVSSGGGVHHRDSPTSQPVPIVALATRLANAAPEQQRTMLGENLYPLVEQLEPESAAKVTGMLLEMDQTEVLHLLESPEALKAKVTEAMDVLRSVAQQQAGGAADQLASLSLGDNIVP

binding [7]: binds
B4: AtMARD1 full length, HA-tagged (pGWB15) (protein, UniProt Q8LGS1 1-263)
chain: MLRNKPRAAVTTKKQTSLLMADQPPPPKPNTCHCSPSLFSSPKFRFFTSKMMMTPFDSDFSLVSPTSILEANPSIFSSKNPKPVSYFEPTIPNPQRFHSPDVFGLADLVKDGDSNRDHSRKPVNKMVLFGSKLRVQIPSSADFGTKTGIRYPPCQLSPCVQTKVLAVSEIDQTEDYTRVISHGPNPTITHIFDNSVFVEATPCSVPLPQPAMETKSTESFLSRCFTCKKNLDQKQDIYIYRGEKGFCSSECRYQEMLLDQMET

The remaining lines, values behind:

Molecule: DCP1, GAL4 activation domain fusion (Arabidopsis thaliana)
binding [2]: no binding

B3: Mediator of ABA-Regulated Dormancy 1 (MARD1) full length, GAL4 activation domain fusion (pAD-GAL4-2.1 prey) (protein, UniProt Q8LGS1 1-263)
chain: MLRNKPRAAVTTKKQTSLLMADQPPPPKPNTCHCSPSLFSSPKFRFFTSKMMMTPFDSDFSLVSPTSILEANPSIFSSKNPKPVSYFEPTIPNPQRFHSPDVFGLADLVKDGDSNRDHSRKPVNKMVLFGSKLRVQIPSSADFGTKTGIRYPPCQLSPCVQTKVLAVSEIDQTEDYTRVISHGPNPTITHIFDNSVFVEATPCSVPLPQPAMETKSTESFLSRCFTCKKNLDQKQDIYIYRGEKGFCSSECRYQEMLLDQMET
binding [4]: no binding | binding [5]: no binding | binding [6]: no binding | binding [3]: binds

B5: MARD1-NYFP (protein, UniProt Q8LGS1 1-263)
chain: MLRNKPRAAVTTKKQTSLLMADQPPPPKPNTCHCSPSLFSSPKFRFFTSKMMMTPFDSDFSLVSPTSILEANPSIFSSKNPKPVSYFEPTIPNPQRFHSPDVFGLADLVKDGDSNRDHSRKPVNKMVLFGSKLRVQIPSSADFGTKTGIRYPPCQLSPCVQTKVLAVSEIDQTEDYTRVISHGPNPTITHIFDNSVFVEATPCSVPLPQPAMETKSTESFLSRCFTCKKNLDQKQDIYIYRGEKGFCSSECRYQEMLLDQMET
binding [8]: no binding | binding [9]: binds | binding [10]: binds
